Assay results published in PubChem BioAssay AID662 (National Center for Advancing Translational Sciences (NCATS), 2007).
The other results are listed elsewhere or left out. Shown are side measurements of this screen, not its main read-out; they come without a call. The list favours compounds with an active or inconclusive main result. The note in brackets gives the kind of curve behind each potency; many fits are weak.

Assay: Cell signaling CRE-BLA (Fsk stim)
Conditions: CHO CRE-bla reporter (cAMP response element driving beta-lactamase), forskolin EC10, beta-lactamase ratio; measured here: 460 nm blue channel
In short: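 Modulation of forskolin-driven signalling is measured in CHO cells carrying a CRE-controlled beta-lactamase reporter. Cells are stimulated with EC10 NKH 477 in the presence of titrated compound for 3 h at 37 °C, then loaded with CCF4 for 2 h at room temperature.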

Question: Which AC50 does the source give for `Cn1c(SCc2nnc(-c3ccccc3Br)o2)nc2sc3c(c2c1=O)CCC3` here?
Answer: 3.98 µM [rising, full curve, poor fit]

Question: For `N#Cc1nc(COc2ccc(F)cc2)oc1N1CCC(Cc2ccccc2)CC1`, which AC50 is on record?
Answer: 0.794 µM [rising, full curve]

Question: Which AC50 does the source give for `O=C(CSc1ncn[nH]1)NC1CC2CCC1C2` (configuration not stated) here?
Answer: 0.00398 µM [falling, full curve, poor fit]

Question: For `COc1ccc(OC)c(CN2CCN(c3ccccc3OC)CC2)c1`, which AC50 is on record?
Answer: 0.00316 µM [falling, full curve]

Question: Which AC50 does the source give for `Cc1cc(NC(=O)c2cccc(S(=O)(=O)N3CC(c4ccccc4)CC3=O)c2)no1` (configuration not stated) here?
Answer: 10 µM [falling, single point]

Question: For `CCn1c(SCC(=O)O)nnc1-c1cc2c(C)nn(-c3ccccc3)c2s1`, which AC50 is on record?
Answer: 15.8 µM [rising, single point]

Question: With `COC(=O)c1cccc(C(=O)Nc2ccc(C)cc2)n1` as the compound, how does the AC50 read?
Answer: 0.316 µM [falling, full curve]

Question: For `O=C(C1=C(O)C(=O)N(CCN2CCOCC2)C1c1ccccc1)c1cccs1` (configuration not stated), which AC50 is on record?
Answer: 25.1 µM [rising, single point]

Question: Which AC50 does the source give for `CC(C)OCCCn1c(=NC(=O)c2ccncc2)c(C#N)cc2c(=O)n3ccccc3nc21` here?
Answer: 10 µM [rising, partial curve]

Question: For `O=C(c1ccco1)N1CCN(C(c2ccccc2)c2nnnn2Cc2cccs2)CC1` (configuration not stated), which AC50 is on record?
Answer: 3.16 µM [rising, single point]

Question: Which AC50 does the source give for `CCN(CC)S(=O)(=O)c1ccc(-c2nnc(SCc3nnc(-c4ccccc4)o3)o2)cc1` here?
Answer: 5.01 µM [rising, single point]

Question: With `COc1ccc(C2(C(=O)O)CCCC2)cc1` as the compound, how does the AC50 read?
Answer: 25.1 µM [rising, single point]

Question: With `COc1ccc(-c2ccc(-c3noc(-c4ccccc4OC)n3)c(OC)n2)cc1` as the compound, how does the AC50 read?
Answer: 7.94 µM [rising, partial curve]

Question: Which AC50 does the source give for `O=C1CC(c2ccc3c(c2)OCO3)c2cc3c(cc2N1)OCCO3` (configuration not stated) here?
Answer: 25.1 µM [rising, single point]

Question: With `CCOc1nc(OCC)nc(N2CCC(C)CC2)n1` as the compound, how does the AC50 read?
Answer: 10 µM [rising, partial curve]

Question: For `Cc1[nH]c2ccc(-c3nnc(SCC(=O)N4CCCc5ccccc54)o3)cc2c1C`, which AC50 is on record?
Answer: 0.01 µM [falling, full curve, poor fit]

Question: For `CSc1ccc(-c2c(C#N)c(N)nc3c2c(C)nn3-c2ccccc2)cc1`, which AC50 is on record?
Answer: 10 µM [rising, partial curve]

Question: Which AC50 does the source give for `c1ccc2c(c1)CCN(c1ncnc3nc[nH]c13)C2` here?
Answer: 2.51 µM [rising, full curve]

Question: With `O=S(=O)(c1cccc2c(Cl)cccc12)N1CCCNCC1` as the compound, how does the AC50 read?
Answer: 31.6 µM [falling, single point]

Question: With `C=C(C)COc1ccc(-c2n[nH]c(C)c2-c2ccccc2)c(O)c1` as the compound, how does the AC50 read?
Answer: 31.6 µM [falling, single point]

Question: With `CCOC(=O)C1=C(C)NC(=O)N(C(C)=O)C1c1ccc(Cl)cc1` (configuration not stated) as the compound, how does the AC50 read?
Answer: 10 µM [falling, partial curve, poor fit]

Question: Which AC50 does the source give for `N#CCCN1CCN(C(=S)c2ccc(-c3ccc(Cl)cc3)o2)CC1` here?
Answer: 12.6 µM [rising, single point]

Question: Which AC50 does the source give for `CCN(CC)CCOc1c(Br)ccc2c1sc1nc3n(c(=O)c12)CCC3` here?
Answer: 10 µM [rising, partial curve]

Question: With `COCCn1c(=O)c(C)nc2cnc(Oc3ccc(OC)cc3)nc21` as the compound, how does the AC50 read?
Answer: 12.6 µM [rising, partial curve]

Question: For `CCOC(=O)CNC(=O)c1nn(-c2ccc(OCC)cc2)c(=O)c2ccccc12`, which AC50 is on record?
Answer: 10 µM [rising, partial curve]

Question: For `Cc1oc(-c2ccccc2F)nc1CN1CCC(C(=O)NC2CCCCCCC2)CC1`, which AC50 is on record?
Answer: 25.1 µM [rising, single point]

Question: Which AC50 does the source give for `CCOC(=O)c1cnc(-n2cc(C)cn2)nc1Nc1ccccc1OCC` here?
Answer: 3.16 µM [rising, partial curve]

Question: Which AC50 does the source give for `O=C(COc1ccc(Cl)cc1)OCC(=O)N1CCCCCC1` here?
Answer: 0.1 µM [falling, single point]

Question: With `CN(CCc1ccccn1)c1ncnc2[nH]ncc12` as the compound, how does the AC50 read?
Answer: 0.1 µM [falling, single point]

Question: With `Cc1cc(Nc2ccccc2Br)n2nc(C)nc2n1` as the compound, how does the AC50 read?
Answer: 12.6 µM [rising, partial curve]

Question: With `O=C(NCc1n[nH]c(=S)n1-c1ccccc1)c1ccco1` as the compound, how does the AC50 read?
Answer: 0.00398 µM [falling, full curve, poor fit]

Question: Which AC50 does the source give for `CCOc1ccc(CCNC(=O)C2CCN(c3nn4c(=O)cc(C)nc4s3)CC2)cc1` here?
Answer: 20 µM [rising, single point]

Question: Which AC50 does the source give for `Cc1ccc(C(=O)Nc2cnc3sc(C)nn3c2=O)cc1` here?
Answer: 0.00316 µM [falling, full curve, poor fit]

Question: With `COc1ccc(C(=O)CN2CCN(c3ccc(F)cc3)CC2)cc1OC` as the compound, how does the AC50 read?
Answer: 0.00398 µM [falling, full curve, poor fit]

Question: Which AC50 does the source give for `CN(Cc1nc(-c2cccnc2)no1)S(=O)(=O)c1ccc2ccccc2c1` here?
Answer: 12.6 µM [rising, single point]

Question: With `Cc1cc(C(=O)N(C2CCCCC2)C2CCCCC2)no1` as the compound, how does the AC50 read?
Answer: 0.0251 µM [falling, full curve, poor fit]

Question: With `COc1cc(C(=O)OCC(=O)NCc2ccco2)cc(OC)c1OC` as the compound, how does the AC50 read?
Answer: 12.6 µM [rising, single point]

Question: With `O=C(CN1CCOCC1)Nc1ccc(-c2nc3ccccc3[nH]2)cc1` as the compound, how does the AC50 read?
Answer: 0.794 µM [falling, full curve, poor fit]

Question: With `Cc1ccc2[nH]c(=O)c(C(c3nnnn3C(C)(C)C)N(Cc3ccco3)CC3CCCO3)cc2c1` (configuration not stated) as the compound, how does the AC50 read?
Answer: 3.16 µM [falling, single point]

Question: With `COCc1cc(=O)[nH]c(/N=C(\N)Nc2ccc(C)cc2)n1` as the compound, how does the AC50 read?
Answer: 10 µM [rising, partial curve]

Question: For `COc1cccc(Oc2cn[nH]c2-c2ccc(OC)cc2O)c1`, which AC50 is on record?
Answer: 7.94 µM [falling, partial curve]

Question: For `COc1ccc(CNc2nc3c(c(C(F)(F)F)n2)CCCCC3)cc1`, which AC50 is on record?
Answer: 0.316 µM [falling, partial curve]

Question: For `CCNS(=O)(=O)c1ccc(OCCNS(C)(=O)=O)cc1`, which AC50 is on record?
Answer: 25.1 µM [rising, single point]

Question: For `O=C(O)CSC(NC(=O)c1cccnc1)(C(F)(F)F)C(F)(F)F`, which AC50 is on record?
Answer: 0.0398 µM [falling, full curve]

Question: For `CCOC(=O)c1c(C)[nH]c(C)c1C(=O)CSc1nnc(-c2ccco2)n1Cc1ccccc1`, which AC50 is on record?
Answer: 12.6 µM [rising, partial curve]

Question: Which AC50 does the source give for `CCCc1c(OCCCOc2ccc(OCC(=O)O)cc2)ccc(C(C)=O)c1O` here?
Answer: 5.01 µM [rising, partial curve]

Question: For `Cc1ccc(S(=O)(=O)c2c(N)n(CC3CCOC3)c3nc4ccccc4nc23)cc1` (configuration not stated), which AC50 is on record?
Answer: 10 µM [rising, partial curve]

Question: With `c1ccc(N2CCN(c3nc4cc5c(cc4s3)OCCO5)CC2)cc1` as the compound, how does the AC50 read?
Answer: 25.1 µM [rising, single point]

Question: Which AC50 does the source give for `Cc1ccc(-n2nc(C)c3c(-c4cccs4)c(C#N)c(N)nc32)cc1` here?
Answer: 10 µM [rising, partial curve]

Question: For `Cc1cc(NC(=O)CSc2nc3c([nH]c4ccccc43)c(=O)n2-c2cccc(C(F)(F)F)c2)no1`, which AC50 is on record?
Answer: 1 µM [rising, full curve]

Question: With `CCCn1c(C)nc2c(NC3CCCCC3)nc(C)nc21` as the compound, how does the AC50 read?
Answer: 12.6 µM [rising, partial curve]

Question: For `Cc1cccc(C)c1NC(=O)C[N+](C)(C)C`, which AC50 is on record?
Answer: 31.6 µM [falling, single point]

Question: With `CCCOC(=O)CSc1nnc(-c2cc(OC)c(OC)c(OC)c2)o1` as the compound, how does the AC50 read?
Answer: 15.8 µM [rising, single point]

Question: Which AC50 does the source give for `COc1ccc(S(=O)(=O)N2CCCCCC2)cc1C(=O)OCc1c(C)noc1C` here?
Answer: 10 µM [rising, partial curve]

Question: With `O=c1c2cc(Cl)ccc2[nH]c(=S)n1Cc1ccco1` as the compound, how does the AC50 read?
Answer: 12.6 µM [rising, partial curve]

Question: For `CCCC(=O)Nc1cc(C)c2c(=O)oc3ccccc3c2n1`, which AC50 is on record?
Answer: 12.6 µM [falling, single point]

Question: Which AC50 does the source give for `Cc1cc(C)c2c(c1)cc(C)c1nnc(SCC(=O)Nc3cc(C)on3)n12` here?
Answer: 10 µM [rising, partial curve]

Question: Which AC50 does the source give for `CC(C)OCCCn1c(-c2ccco2)nc2nc3ccccc3nc21` here?
Answer: 12.6 µM [rising, partial curve]

Question: For `O=C(NCc1ccc2c(c1)OCO2)c1cccc(S(=O)(=O)N2CCOCC2)c1`, which AC50 is on record?
Answer: 20 µM [rising, single point]

Question: Which AC50 does the source give for `CCCCC(c1nnnn1CS(=O)(=O)c1ccc(C)cc1)N1CCN(c2ccccc2)CC1` (configuration not stated) here?
Answer: 12.6 µM [falling, partial curve]

Question: Which AC50 does the source give for `N=c1c2c(-c3ccccc3)c(-c3ccccc3)oc2ncn1CCCN1CCOCC1` here?
Answer: 25.1 µM [rising, single point]

Question: For `COc1ccc(-n2c(N)c(C(=O)NCC3CCCO3)c3nc4ccccc4nc32)c(OC)c1` (configuration not stated), which AC50 is on record?
Answer: 20 µM [rising, partial curve]

Question: With `O=C(CSc1ncc(-c2ccc(F)cc2)n1Cc1ccco1)Nc1nccs1` as the compound, how does the AC50 read?
Answer: 20 µM [rising, single point]

Question: Which AC50 does the source give for `CCN1CCC2(CC1)C(C#N)=C(N)Oc1c2sc2nc(C)cc(C)c12` here?
Answer: 5.01 µM [falling, single point]

Question: Which AC50 does the source give for `CN1CCN(c2nc(-c3ccncc3)nc3ccccc23)CC1` here?
Answer: 0.00398 µM [falling, partial curve, poor fit]

Question: For `CC1(C)CC(=O)C(C(c2ccncc2)C2C(=O)CC(C)(C)CC2=O)C(=O)C1`, which AC50 is on record?
Answer: 0.251 µM [falling, full curve, poor fit]

Question: With `Cn1c(=O)[nH]c(=O)c2c1nc(CN1CCN(c3cccc(Cl)c3)CC1)n2CCCc1ccccc1` as the compound, how does the AC50 read?
Answer: 3.98 µM [rising, full curve]
